The list shows a part of the results. Repeats are few or missing, and single values can be far off.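 Cells were imaged in 1,536-well plates, and nuclei stained with an antibody against cleaved PARP were counted against all DNA-stained nuclei to give the apoptosis fraction. Screening doses were chosen to leave most cells alive, and resting and induced cleaved-PARP levels differ strongly between cell lines.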
Experiments:
Experiment in all cases: cleaved PARP positive nuclei fraction relative to DMSO control; melanoma cells; higher = more apoptosis
Settings in all cases: library dose: low library concentration; 72 h
MZ2-MEL = test system: MZ2-MEL
MeWo = test system: MeWo
RPMI7951 = test system: RPMI7951
RVH-421 = test system: RVH-421
SkMel28 = test system: SkMel28
SkMel30 = test system: SkMel30
SkMel5 = test system: SkMel5
UACC257 = test system: UACC257
UACC62 = test system: UACC62

Row | Structure (SMILES) | cleaved PARP positive nuclei fraction (MZ2-MEL) | cleaved PARP positive nuclei fraction (MeWo) | cleaved PARP positive nuclei fraction (RPMI7951) | cleaved PARP positive nuclei fraction (RVH-421) | cleaved PARP positive nuclei fraction (SkMel28) | cleaved PARP positive nuclei fraction (SkMel30) | cleaved PARP positive nuclei fraction (SkMel5) | cleaved PARP positive nuclei fraction (UACC257) | cleaved PARP positive nuclei fraction (UACC62)
1 | Cn1cc(/C=C2\C(=O)Nc3cccnc32)c2ccccc21 + O=c1cc(-c2cccc3c2Sc2ccccc2S3)oc(N2CCOCC2)c1 [KU55933] (first compound 0.4 µM, partner dose 1 µM) | 94.8% | 44.1% | 43.7% | 28.9% | 154% | 16.7% | 42.3% | 103% | 39%
2 | O=C1NC(=O)/C(=C/c2ccc(-c3ccc(F)cc3O)o2)S1 + COc1cc(N2CCC(N3CCN(C)CC3)CC2)ccc1Nc1ncc(Cl)c(Nc2ccccc2S(=O)(=O)C(C)C)n1 [NVP-TAE684] (first compound 1 µM, partner dose 0.08 µM) | 35.1% | 190% | 84.3% | 59.1% | 182% | 41.8% | 64% | 159% | 92%
3 | COc1cc2c(Oc3ccc4[nH]c(C)cc4c3F)ncnc2cc1OCCCN1CCCC1 [cediranib] + O=S(=O)(c1ccccc1)N(CC(F)(F)F)c1ccc(C(O)(C(F)(F)F)C(F)(F)F)cc1 [T0901317] (first compound 0.4 µM, partner dose 1.4 µM) | 87.1% | 103% | 71.3% | 145% | 74.6% | 127% | 68.4% | 121% | 197%
4 | CCN(CC)CCCCNc1ncc2cc(-c3cc(OC)cc(OC)c3)c(NC(=O)NC(C)(C)C)nc2n1 + c1cc(-c2cnn3cc(-c4ccc(OCCN5CCCCC5)cc4)cnc23)ccn1 [Dorsomorphin] (first compound 0.1 µM, partner dose 0.4 µM) | 128% | 55.6% | 116% | 70.8% | 131% | 115% | 51.5% | 127% | 74.5%
5 | NCC(=O)Nc1ccc(-n2nc(C(F)(F)F)cc2-c2ccc3c(ccc4ccccc43)c2)cc1 + COC(=O)c1sccc1S(=O)(=O)Nc1ccc(Nc2ccccc2)cc1OC [GSK0660] (first compound 1 µM, partner dose 1 µM) | 121% | 295% | 42.3% | 51.1% | 139% | 80.4% | 152% | 47.8% | 60.4%
6 | CCc1ccc(CCOc2ccc(CC3SC(=O)NC3=O)cc2)nc1 (stereo not drawn) [pioglitazone] + COc1ccc2c(c1)CCC1C2CCC2(C)C(NCCCCCCN3C(=O)C=CC3=O)CCC12 [U73122] (first compound 2 µM, partner dose 0.4 µM) | 122% | 78.5% | 81.4% | 119% | 155% | 37.7% | 32.6% | 227% | 35.6%
7 | Oc1cc(-c2nc(-c3ccccc3)[nH]c2-c2ccncc2)ccc1Cl + O=C(O)C(=O)Nc1sc2c(c1C(=O)O)CCNC2 [TCS401] (first compound 0.2 µM, partner dose 1.66667 µM) | 132% | 48.3% | 73.8% | 130% | 75.6% | 26.9% | 57.6% | 50.7% | 105%
8 | COc1ccc2c(c1)CCC1C2CCC2(C)C(NCCCCCCN3C(=O)C=CC3=O)CCC12 (stereo not drawn) + O=S(=O)(c1ccccc1)N(CC(F)(F)F)c1ccc(C(O)(C(F)(F)F)C(F)(F)F)cc1 [T0901317] (first compound 0.4 µM, partner dose 1.4 µM) | 230% | 51.5% | 105% | 42.4% | 124% | 26.9% | 90.9% | 98.2% | 67.7%
9 | CN(C)S(=O)(=O)c1ccc2c(c1)/C(=C/c1cc3c([nH]1)CCCC3)C(=O)N2 + Oc1cc(-c2nc(-c3ccccc3)[nH]c2-c2ccncc2)ccc1Cl [L779450] (first compound 0.4 µM, partner dose 0.2 µM) | 79% | 88.4% | 43.8% | 85.8% | 276% | 62.6% | 121% | 100% | 54.8%
10 | N#Cc1c(O)c2c(-c3ccc(-c4ccccc4O)cc3)csc2[nH]c1=O + COc1ccc(COc2ccc(Cc3cnc(N)nc3N)cc2OC)cc1 [GW2580] (first compound 2 µM, partner dose 1 µM) | 70.6% | 144% | 37.3% | 117% | 58.6% | 27.5% | 57.5% | 69% | 33.8%
11 | COc1ccc(COc2ccc(Cc3cnc(N)nc3N)cc2OC)cc1 + Oc1nc(-c2ccc(C(F)(F)F)cc2)nc2c1CSCC2 [XAV939] (first compound 1 µM, partner dose 2 µM) | 73.6% | 68% | 91.1% | 155% | 170% | 88% | 86.5% | 218% | 119%
12 | COc1cc2c(Oc3ccc4[nH]c(C)cc4c3F)ncnc2cc1OCCCN1CCCC1 [cediranib] + Cn1cc(/C=C2\C(=O)Nc3cccnc32)c2ccccc21 [GW441756] (first compound 0.4 µM, partner dose 0.4 µM) | 159% | 99% | 43.3% | 29.2% | 150% | 92.6% | 90.1% | 167% | 47.3%

As entered above.
CCc1ccc(CCOc2ccc(CC3SC(=O)NC3=O)cc2)nc1 (stereo not drawn) [pioglitazone] + COc1ccc2c(c1)CCC1C2CCC2(C)C(NCCCCCCN3C(=O)C=CC3=O)CCC12 [U73122] (first compound 2 µM, partner dose 0.4 µM) – cleaved PARP positive nuclei fraction (UACC257): 227%
COc1cc2c(Oc3ccc4[nH]c(C)cc4c3F)ncnc2cc1OCCCN1CCCC1 [cediranib] + Cn1cc(/C=C2\C(=O)Nc3cccnc32)c2ccccc21 [GW441756] (first compound 0.4 µM, partner dose 0.4 µM) – cleaved PARP positive nuclei fraction (SkMel5): 90.1%
